Test results taken from PMC6696985.
Results are given in words; binding and its absence hold for the method and conditions named. Some entries that bind do so weakly or less than the wild type. Tags and fused reporters may be left off the sequences shown.

What was measured:
[1] = molecular target: Mitofusin2 (mouse (endogenous in cerebral cortex and hippocampus)) (UniProt Q80U63); test: native gel or EMSA; BN-PAGE of crude mitochondria from cerebral cortex and hippocampus of 8-wk-old WT or MITOL KO (eKO) mice, solubilized with 0.25% DDM or 0.625% digitonin, 20 mM NaCl, 50 mM imidazole pH 7.0; immunoblot with anti-Mfn2
[2] = molecular target: Mitofusin2 (mouse (endogenous in cerebral cortex and hippocampus)) (UniProt Q80U63); test: sucrose-density gradient centrifugation; mitochondria isolated from cerebral cortex and hippocampus of WT or eKO mice separated by sucrose-density gradient centrifugation; each fraction immunoblotted with anti-Mfn2; method as in Sugiura et al, 2013

B1: Mitofusin2 (protein, UniProt Q80U63 1-757)
chain: MSLLFSRCNSIVTVKKDKRHMAEVNASPLKHFVTAKKKINGIFEQLGAYIQESASFLEDTHRNTELDPVTTEEQVLDVKGYLSKVRGISEVLARRHMKVAFFGRTSNGKSTVINAMLWDKVLPSGIGHTTNCFLRVGGTDGHEAFLLTEGSEEKKSVKTVNQLAHALHQDEQLHAGSMVSVMWPNSKCPLLKDDLVLMDSPGIDVTTELDSWIDKFCLDADVFVLVANSESTLMQTEKQFFHKVSERLSRPNIFILNNRWDASASEPEYMEEVRRQHMERCTSFLVDELGVVDRAQAGDRIFFVSAKEVLSARVQKAQGMPEGGGALAEGFQVRMFEFQNFERQFEECISQSAVKTKFEQHTVRAKQIAEAVRLIMDSLHIAAQEQRVYCLEMREERQDRLRFIDKQLELLAQDYKLRIKQITEEVERQVSTAMAEEIRRLSVLVDEYQMDFHPSPVVLKVYKNELHRHIEEGLGRNLSDRCSTAIASSLQTMQQDMIDGLKPLLPVSMRNQIDMLVPRQCFSLSYDLNCDKLCADFQEDIEFHFSLGWTMLVNRFLGPKNSRRALLGYSDQVQRPLPLTPANPSMPPLPQSSLTQEELMVSMVTGLASLTSRTSMGILVVGGVVWKAVGWRLIALSFGLYGLLYVYERLTWTTKAKERAFKRQFVEYASEKLQLIISYTGSNCSHQVQQELSGTFAHLCQQVDITRDNLEQEIAAMNKKVEALDSLQSRAKLLRNKAGWLDSELNMFTHQYLQPSR
In the case of B1, the binding [1] is reported as “binds” and the binding [2] is reported as “binds”.
